The values that follow come from publication PMC4868757, “PDIP46 (DNA polymerase δ interacting protein 46) is an activating factor for human DNA polymerase δ” (Oncotarget, 2016).

Protein sequences, listed by entry. Tags and fused reporters are not part of them. Lines headed by an entry give the natural chain unless they say otherwise; changes in a name come on top.
UniProt P28340: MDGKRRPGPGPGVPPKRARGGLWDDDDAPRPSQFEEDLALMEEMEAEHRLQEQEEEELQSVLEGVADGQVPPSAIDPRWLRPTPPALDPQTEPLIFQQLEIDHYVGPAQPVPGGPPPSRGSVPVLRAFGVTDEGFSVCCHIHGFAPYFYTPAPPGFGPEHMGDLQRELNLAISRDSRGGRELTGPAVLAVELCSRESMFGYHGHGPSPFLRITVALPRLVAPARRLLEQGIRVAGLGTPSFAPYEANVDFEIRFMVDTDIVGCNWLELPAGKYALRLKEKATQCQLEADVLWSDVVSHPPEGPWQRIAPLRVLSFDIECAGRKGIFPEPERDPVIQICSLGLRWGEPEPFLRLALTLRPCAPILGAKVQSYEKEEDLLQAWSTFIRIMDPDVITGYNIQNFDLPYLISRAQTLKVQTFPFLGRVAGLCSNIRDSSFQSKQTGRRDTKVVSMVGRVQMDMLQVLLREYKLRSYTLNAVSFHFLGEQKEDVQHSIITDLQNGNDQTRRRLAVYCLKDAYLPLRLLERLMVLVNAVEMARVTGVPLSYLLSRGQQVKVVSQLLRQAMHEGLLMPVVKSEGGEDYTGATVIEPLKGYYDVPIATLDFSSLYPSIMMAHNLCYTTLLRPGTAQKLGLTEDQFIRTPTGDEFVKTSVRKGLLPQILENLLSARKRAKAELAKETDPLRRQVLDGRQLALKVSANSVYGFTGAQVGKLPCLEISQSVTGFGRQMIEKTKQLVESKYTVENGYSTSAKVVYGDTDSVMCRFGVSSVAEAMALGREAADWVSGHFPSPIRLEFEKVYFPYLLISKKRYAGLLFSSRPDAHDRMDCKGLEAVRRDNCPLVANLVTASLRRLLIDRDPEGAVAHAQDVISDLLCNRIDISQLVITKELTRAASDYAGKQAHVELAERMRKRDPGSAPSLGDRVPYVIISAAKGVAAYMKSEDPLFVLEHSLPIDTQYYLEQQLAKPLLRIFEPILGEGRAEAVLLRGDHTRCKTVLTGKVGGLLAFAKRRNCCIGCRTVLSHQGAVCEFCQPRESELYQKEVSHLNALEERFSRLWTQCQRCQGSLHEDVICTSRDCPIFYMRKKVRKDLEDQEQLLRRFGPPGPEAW
UniProt P49005: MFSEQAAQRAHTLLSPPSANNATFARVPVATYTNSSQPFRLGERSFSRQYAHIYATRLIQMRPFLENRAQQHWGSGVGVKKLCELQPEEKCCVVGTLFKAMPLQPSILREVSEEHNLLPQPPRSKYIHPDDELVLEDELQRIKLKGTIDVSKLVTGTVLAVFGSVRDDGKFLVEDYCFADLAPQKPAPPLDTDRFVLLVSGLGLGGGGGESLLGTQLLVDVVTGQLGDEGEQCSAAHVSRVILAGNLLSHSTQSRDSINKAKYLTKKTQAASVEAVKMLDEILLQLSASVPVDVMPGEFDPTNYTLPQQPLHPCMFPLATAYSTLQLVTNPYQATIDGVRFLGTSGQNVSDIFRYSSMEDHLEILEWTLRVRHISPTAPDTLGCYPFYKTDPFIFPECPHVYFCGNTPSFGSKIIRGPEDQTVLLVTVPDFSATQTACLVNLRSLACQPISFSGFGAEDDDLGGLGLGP

No constants are given. Whether binding was seen depends on the method and setting. For part of these data: In cells and extracts the contact can be indirect. Some results given as binding are weak or reduced against the parent protein; the word gives no strength.

Experiment [1] concerns the target T1, PDIP46, endogenous in cultured human cells (human (endogenous in HeLa, HEK 293, A549)) (UniProt Q9BY77).
T1 sequence: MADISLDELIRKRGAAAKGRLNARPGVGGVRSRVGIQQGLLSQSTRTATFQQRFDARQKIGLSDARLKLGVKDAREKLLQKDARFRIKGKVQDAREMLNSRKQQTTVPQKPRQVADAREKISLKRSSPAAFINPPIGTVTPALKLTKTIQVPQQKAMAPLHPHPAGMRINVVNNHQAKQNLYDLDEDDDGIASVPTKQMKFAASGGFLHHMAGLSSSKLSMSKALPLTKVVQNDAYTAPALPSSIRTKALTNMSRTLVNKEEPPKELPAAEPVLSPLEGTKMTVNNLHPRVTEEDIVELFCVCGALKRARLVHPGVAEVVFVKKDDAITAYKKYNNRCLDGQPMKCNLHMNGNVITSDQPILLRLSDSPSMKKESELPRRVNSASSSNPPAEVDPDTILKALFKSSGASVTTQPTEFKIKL
Nature of the experiment: co-IP; HeLa cell extracts immunoprecipitated with polyclonal antibodies against PDIP46, A/G agarose beads, washed with RIPA buffer; western blot for p50 and p125. In general terms: A western blot detects proteins with antibodies after separation by electrophoresis.

Experiment [2] addresses p125 subunit of Pol δ, endogenous in cultured human cells (human (endogenous in HeLa, HEK 293, A549)) (UniProt P28340). Nature of the experiment: co-IP; ChIP: cells cross-linked with 1% formaldehyde, chromatin immunoprecipitated with anti-p125 or control IgG (ChIP-IT Express Enzymatic Kit); western blot for PDIP46 and p125.
Experiment [3] shares this target. Nature of the experiment: SEC; nuclear extracts of HEK 293 cells on a Superose 6 FPLC column; fractions western blotted for p125 and PDIP46. (In general: SEC sorts molecules by how far they enter the pores of the column.)
Experiment [4] shares this target. Nature of the experiment: co-IP; immunoaffinity chromatography of HeLa cell lysates on immobilized p125 antibody; fractions blotted (Figure S1).
Experiment [5] has the same target. Nature of the experiment: native gel or EMSA; HEK 293 cell lysates on 5-15% nondenaturing gradient gels at 4°C run to limiting mobility (18 h); western blot for p125 and PDIP46. Background: A gel shift assay detects complexes by their altered migration in electrophoresis.

For “p50 subunit of Pol δ, endogenous in HeLa cells (from UniProt P49005 1-469)”, the binding result in experiment [1] is recorded as “binds”.

Turning to “p125 subunit of Pol δ, endogenous in cultured human cells (from UniProt P28340 1-1107)”, in experiment [1], the binding entry was “binds”.

B1: GST-PDIP46 (DNA polymerase δ interacting protein 46), wild type, full length (natural protein, human, UniProt Q9BY77 1-421, looked up)
chain: T1 sequence
notes: PDIP46 (SKAR, POLDIP3), human, full-length; Subcloned in pGEX-5X-3; The functional rows used untagged PDIP46 (his-Sumo fusion, tags removed by Sumo protease, Mono S), not this GST fusion; also called GST-p46; SKAR; source: E. coli BL21DE3 (pLysS), purified (glutathione beads)
On to B1, for which the binding entry in experiment [2], in experiment [3], in experiment [4] and in experiment [5] was “binds” in each case.
